In the supplement of paper PMC8288183:
The other results are listed elsewhere or left out. Repeats are few or missing, and single values can be far off.

Target: T1, NSUN6 (UniProt Q8TEA1)
T1 sequence: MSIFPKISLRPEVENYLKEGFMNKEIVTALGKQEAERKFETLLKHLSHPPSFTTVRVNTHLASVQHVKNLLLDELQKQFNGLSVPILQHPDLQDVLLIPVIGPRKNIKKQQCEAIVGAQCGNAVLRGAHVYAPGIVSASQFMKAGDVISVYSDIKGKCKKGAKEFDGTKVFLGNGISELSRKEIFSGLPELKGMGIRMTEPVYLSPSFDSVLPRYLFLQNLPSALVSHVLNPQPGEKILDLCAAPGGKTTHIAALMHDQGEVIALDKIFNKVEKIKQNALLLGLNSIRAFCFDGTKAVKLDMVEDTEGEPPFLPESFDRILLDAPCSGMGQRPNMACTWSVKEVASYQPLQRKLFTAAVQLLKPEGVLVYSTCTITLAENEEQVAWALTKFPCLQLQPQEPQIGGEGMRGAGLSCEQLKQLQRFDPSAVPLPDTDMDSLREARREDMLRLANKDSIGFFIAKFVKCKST
Assay: m5C methylation level at the target C (C/(C+U) bisulfite reads) (fraction); higher = more methylation by NSUN6; extreme values may be limits of the assay
Details: HEK293T (wild-type)
Protocol: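 High-throughput mutagenesis reporter. About 140 bp oligo-pool variants of four natural Type II m5C substrates (substrate #1 chr15:91425541; #2 RAB15 3'UTR chr14:65413377; #3 SULT2A1 5'UTR chr19:48389569; #4 NAAA CDS chr4:76857361) were cloned as 3'UTR elements of psiCHECK-2 luciferase and transfected into wild-type HEK293T cells. Total RNA was taken 48 h later and m5C level was measured by targeted bisulfite sequencing as C/(C+U) reads at the m5C site (one library).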

[1] = parent substrate: substrate #1 (main figure)

| Sequence | m5C methylation level at the target C [1] | m5C methylation level at the target C (parent substrate: substrate #2) | m5C methylation level at the target C (parent substrate: substrate #3) | m5C methylation level at the target C (parent substrate: substrate #4) |
| --- | --- | --- | --- | --- |
| UCUGAA | 0 | 0.0034 | 0 | 0 |
| GCAGUA | 0.00191 | 0.0013 | 0.00548 | 0.00223 |
| UCGAGA | 0.00519 | 0.00795 | 0.00131 | 0.00104 |
| UCGCUG | 0.0015 | 0.000949 | 0.0025 | 0.00182 |
| ACAACU | 0 | 0.00271 | 0 | 0.00148 |
| CCUUUC | 0.00138 | 0 | 0 | 0 |
| ACCAAG | 0.00426 | 0 | 0 | 0 |
| ACUAUG | 0 | 0 | 0 | 0.00103 |
| ACACAC | 0.00095 | 0.0012 | 0.00163 | 0.00092 |
| ACUUGU | 0.00248 | 0.00228 | 0 | 0 |
| CCACAC | 0 | 0.00602 | 0.000533 | 0.0106 |
| GCCUAG | 0 | 0.0086 | 0.00365 | 0.00208 |
| CCAUGU | 0 | 0.00277 | 0.00258 | 0.00559 |
| GCAUGG | 0.0039 | 0 | 0.000601 | 0 |
| UCUGCA | 0 | 0.00212 | 0.000775 | 0 |
| UCGACG | 0.00185 | 0.00717 | 0.00467 | 0.0107 |
| GCUCCC | 0.00129 | 0 | 0.00043 | 0.00171 |
| GCGGUC | 0.00175 | 0 | 0.00151 | 0 |
| CCAGGG | 0 | 0 | 0.00774 | 0.00144 |
| UCAGAG | 0.00495 | 0.00252 | 0.000489 | 0 |
| UCCCAU | 0.00083 | 0.00114 | 0.00142 | 0.00123 |
| UCUCUG | 0.00145 | 0.000983 | 0 | 0 |
| CCACAU | 0 | 0 | 0.000505 | 0.000994 |
| ACAAAG | 0 | 0.0271 | 0 | 0.00421 |

Whole records as entered above:
UCUGAA as listed: m5C methylation level at the target C [1]: 0; m5C methylation level at the target C (parent substrate: substrate #2): 0.0034; m5C methylation level at the target C (parent substrate: substrate #3): 0; m5C methylation level at the target C (parent substrate: substrate #4): 0
ACACAC as listed: m5C methylation level at the target C [1]: 0.00095; m5C methylation level at the target C (parent substrate: substrate #2): 0.0012; m5C methylation level at the target C (parent substrate: substrate #3): 0.00163; m5C methylation level at the target C (parent substrate: substrate #4): 0.00092
ACAACU as listed: m5C methylation level at the target C [1]: 0; m5C methylation level at the target C (parent substrate: substrate #2): 0.00271; m5C methylation level at the target C (parent substrate: substrate #3): 0; m5C methylation level at the target C (parent substrate: substrate #4): 0.00148
GCAGUA as listed: m5C methylation level at the target C [1]: 0.00191; m5C methylation level at the target C (parent substrate: substrate #2): 0.0013; m5C methylation level at the target C (parent substrate: substrate #3): 0.00548; m5C methylation level at the target C (parent substrate: substrate #4): 0.00223

(list continues)

| Sequence | m5C methylation level at the target C [1] | m5C methylation level at the target C (parent substrate: substrate #2) | m5C methylation level at the target C (parent substrate: substrate #3) | m5C methylation level at the target C (parent substrate: substrate #4) |
| --- | --- | --- | --- | --- |
| CCCGCA | 0.00112 | 0 | 0.00172 | 0 |
| CCUACG | 0.00316 | 0 | 0.000975 | 0 |
| CCGGGU | 0 | 0.00105 | 0.000317 | 0.00152 |
| CCAGUU | 0 | 0 | 0.000394 | 0 |
| ACCAGU | 0 | 0.000623 | 0.00574 | 0.00185 |
| CCACCC | 0.000436 | 0 | 0.000421 | 0 |
| UCACAG | 0.0021 | 0 | 0 | 0.00245 |
| CCGACG | 0.00422 | 0 | 0.00152 | 0.000593 |
| UCUCAG | 0 | 0 | 0.000873 | 0.000684 |
| GCCAGC | 0 | 0.00171 | 0.00168 | 0 |
| UCUACU | 0 | 0.00245 | 0 | 0 |
| CCCCAC | 0.00124 | 0.00162 | 0.00273 | 0.00126 |
| CCCAAU | 0.000771 | 0.00156 | 0.00438 | 0.0039 |
| CCAAUG | 0 | 0 | 0.00208 | 0 |
| ACAUAA | 0.00332 | 0.00195 | 0.00232 | 0.000615 |
| CCGAAA | 0.00163 | 0 | 0.00274 | 0.00239 |
| UCUCGC | 0 | 0.0024 | 0.00054 | 0.00759 |
| GCUUGA | 0.00156 | 0.00549 | 0.00391 | 0.00106 |
| ACGUCC | 0.000699 | 0.00164 | 0 | 0.00643 |
| UCGGCA | 0 | 0 | 0.000397 | 0.00193 |
| ACACGG | 0 | 0 | 0.00325 | 0.000426 |
| CCGUAG | 0 | 0.000745 | 0.00077 | 0.00176 |
| UCCCGG | 0.00056 | 0.00128 | 0.000682 | 0 |
| ACCACG | 0.000572 | 0.00479 | 0.000471 | 0.000756 |

| Sequence | m5C methylation level at the target C [1] | m5C methylation level at the target C (parent substrate: substrate #2) | m5C methylation level at the target C (parent substrate: substrate #3) | m5C methylation level at the target C (parent substrate: substrate #4) |
| --- | --- | --- | --- | --- |
| ACACGU | 0.01 | 0 | 0.00171 | 0.00251 |
| ACAUUC | 0 | 0 | 0 | 0 |
| ACACAA | 0 | 0.00306 | 0.000566 | 0 |
| CCUUCU | 0.0049 | 0 | 0 | 0 |
| CCGUAC | 0.000584 | 0.00795 | 0.00221 | 0.00162 |
| UCGCUU | 0.00392 | 0.00179 | 0 | 0.00054 |
| GCAUGC | 0.00188 | 0 | 0.000695 | 0.00415 |
| UCGAAC | 0 | 0 | 0.000475 | 0.00105 |
| CCUUAG | 0 | 0.000682 | 0.000593 | 0 |
| GCAACG | 0.00204 | 0.00464 | 0.0019 | 0.00815 |
| CCCGGG | 0 | 0.00073 | 0 | 0.00146 |
| UCUGCC | 0 | 0.00337 | 0.000971 | 0 |
| CCCAUA | 0.00132 | 0 | 0.000764 | 0.00106 |
| GCUACA | 0.00153 | 0.00281 | 0.000564 | 0.00266 |
| ACCUCA | 0 | 0.00437 | 0.00155 | 0.00335 |
| UCCCUC | 0.0115 | 0.00172 | 0.000887 | 0.00195 |
| ACAGUA | 0.00154 | 0 | 0 | 0 |
| GCCCAA | 0.00129 | 0 | 0.000564 | 0.00152 |
| GCAGCC | 0.000878 | 0.00203 | 0.000699 | 0.000908 |
| ACGGGU | 0.000797 | 0 | 0.000687 | 0.00444 |
| UCAAAC | 0 | 0 | 0 | 0 |
| GCCCAU | 0.000978 | 0.00113 | 0.000779 | 0.000611 |
| UCUCCU | 0.0016 | 0 | 0 | 0 |
| GCCACC | 0.00115 | 0.00753 | 0.00132 | 0.00155 |
